Results on one substance are retold here after paper PMC9794804.

The chains behind the UniProt entries cited, without tags or fusion partners.
UniProt P42227: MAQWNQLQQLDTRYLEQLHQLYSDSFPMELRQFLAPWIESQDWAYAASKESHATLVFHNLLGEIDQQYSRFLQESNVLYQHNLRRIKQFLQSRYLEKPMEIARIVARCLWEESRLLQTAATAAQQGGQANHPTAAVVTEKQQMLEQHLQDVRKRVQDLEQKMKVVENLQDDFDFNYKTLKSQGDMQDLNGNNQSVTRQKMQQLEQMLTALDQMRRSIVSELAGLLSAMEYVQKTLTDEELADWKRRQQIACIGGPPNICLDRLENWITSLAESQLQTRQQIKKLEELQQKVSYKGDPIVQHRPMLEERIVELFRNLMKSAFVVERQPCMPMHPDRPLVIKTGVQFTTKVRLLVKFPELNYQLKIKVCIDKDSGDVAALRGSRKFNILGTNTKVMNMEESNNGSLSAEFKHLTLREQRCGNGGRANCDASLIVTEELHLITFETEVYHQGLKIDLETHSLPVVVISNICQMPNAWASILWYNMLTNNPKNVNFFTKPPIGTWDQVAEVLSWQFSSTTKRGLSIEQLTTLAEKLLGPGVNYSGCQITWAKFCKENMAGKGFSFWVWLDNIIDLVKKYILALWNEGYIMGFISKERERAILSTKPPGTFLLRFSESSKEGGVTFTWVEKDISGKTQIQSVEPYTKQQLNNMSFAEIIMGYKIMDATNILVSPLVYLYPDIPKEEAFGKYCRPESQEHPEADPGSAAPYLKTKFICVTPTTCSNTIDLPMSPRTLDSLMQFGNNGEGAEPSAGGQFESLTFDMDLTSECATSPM

Results are given in words; binding and its absence hold for the method and conditions named. Binding seen in cells or lysates may run through a third protein. Some binding calls cover weakened binding; strength is not graded here.

Experiment [1] deals with T1, βPIX (mouse (endogenous in RAW 264.7)) (UniProt Q9ES28).
T1 sequence: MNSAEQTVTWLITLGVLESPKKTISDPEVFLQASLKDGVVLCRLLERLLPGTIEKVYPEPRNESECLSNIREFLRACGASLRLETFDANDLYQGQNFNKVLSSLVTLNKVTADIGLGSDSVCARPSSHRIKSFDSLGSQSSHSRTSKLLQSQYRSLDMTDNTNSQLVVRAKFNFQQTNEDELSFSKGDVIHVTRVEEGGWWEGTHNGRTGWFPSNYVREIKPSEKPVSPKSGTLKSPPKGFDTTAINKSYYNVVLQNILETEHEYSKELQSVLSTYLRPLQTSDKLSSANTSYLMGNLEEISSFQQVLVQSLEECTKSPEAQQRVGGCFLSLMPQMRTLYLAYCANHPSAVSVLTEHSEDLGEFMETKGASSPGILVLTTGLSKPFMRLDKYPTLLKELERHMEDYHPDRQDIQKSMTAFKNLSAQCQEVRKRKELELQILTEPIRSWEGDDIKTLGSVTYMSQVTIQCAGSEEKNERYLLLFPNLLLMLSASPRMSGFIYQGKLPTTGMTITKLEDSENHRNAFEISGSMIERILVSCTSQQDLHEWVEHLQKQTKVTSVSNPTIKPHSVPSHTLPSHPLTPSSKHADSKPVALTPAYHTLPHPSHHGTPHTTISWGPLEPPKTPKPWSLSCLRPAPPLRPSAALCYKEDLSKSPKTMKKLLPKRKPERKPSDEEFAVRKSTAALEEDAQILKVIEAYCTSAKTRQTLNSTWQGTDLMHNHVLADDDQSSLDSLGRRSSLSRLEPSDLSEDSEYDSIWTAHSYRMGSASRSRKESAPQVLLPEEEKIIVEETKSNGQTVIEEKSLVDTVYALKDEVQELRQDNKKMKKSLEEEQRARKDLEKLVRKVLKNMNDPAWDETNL
Kind of experiment: co-IP; anti-βPIX antibody IP from lysates of PBS-treated (no rmCIRP) RAW 264.7 cells; protein A/G magnetic beads; Western blot for STAT3; lysis buffer 10 mM Tris-HCl pH 7.5, 100 mM NaCl, 1 mM EDTA, 1 mM EGTA, 1% Triton X-100. Background: A western blot detects proteins with antibodies after separation by electrophoresis.

The target of experiment [2] is T1, βPIX (mouse (endogenous in RAW 264.7)). Kind of experiment: co-IP; anti-βPIX antibody IP from lysates of RAW 264.7 cells treated with rmCIRP (1 µg/ml, 24 h), with or without stattic (3 µM); protein A/G magnetic beads; Western blot for STAT3; lysis buffer 10 mM Tris-HCl pH 7.5, 100 mM NaCl, 1 mM EDTA, 1 mM EGTA, 1% Triton X-100.

For the substance STAT3 (from UniProt P42227 1-770), the binding result in experiment [1] is “no binding (condition: PBS-treated cells (without rmCIRP))”; in experiment [2], “binds”.
